# In all, about 330,000 compounds went through this assay and about 7,700 (2.3%) were called active. The inconclusive results got no clear call from the source; some entries with a clear call stand among them for comparison. Calls come from the whole dose curve; as a rule, active = well fitted inhibition curve with a large enough effect; inconclusive = small, poorly fitted or top-dose-only effect, or effect the other way; inactive = flat fitted curve, though single readings scatter. Potencies beside an inconclusive call are fits to weak or partial responses and may not hold up.
# Test: qHTS screen for small molecules that inhibit ELG1-dependent DNA repair in human embryonic kidney (HEK293T) cells expressing luciferase-tagged ELG1; note: nearly all actives have a fitted effect of over 55% in size
# Conditions: HEK293T ELG1-luciferase reporter, luminescence, 16 h, DNA damage induced by 5-fluorouridine; series mostly up to 46.1 µM
# How it was run: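 Quantitative HTS, concentration-response format. 2,000 cells/well co-treated with 5-fluorouridine and compound, 16 hr in 5% CO2 at 37 °C; ONE-Glo luminescence read after 30 min.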
# Potency is the fitted concentration of half-maximal effect.
row,Structure (SMILES),Potency
1,CC(=O)Nc1cccc(-n2nnc(SCC(=O)c3ccccc3)n2)c1,"inconclusive: 23.1 µM [activator, partial curve]"
2,Fc1ccc(/C=N/Nc2nc3ccccc3[nH]2)cc1F,"inconclusive: 2.06 µM [activator, full curve, poor fit]"
3,COc1ccc(CSCC(=O)N/N=C/c2ccccc2OCc2ccccc2)cc1,"inconclusive: 29.1 µM [inhibitor, single point]"
4,Cc1ccc(OCCNC(=O)c2cc(C(=O)NCCOc3ccc(C)cc3)cc([N+](=O)[O-])c2)cc1,"inconclusive: 18.4 µM [inhibitor, single point]"
5,COc1ccc(NC(=O)Nc2nnc(-c3ccncc3)s2)cc1,"inconclusive: 29.1 µM [inhibitor, single point]"
6,Cc1cc(Cl)ccc1NC(=S)NCc1cccs1,inactive
7,Cn1c(=O)oc2cc(S(=O)(=O)N3CCCC(C(=O)N4CCc5ccccc5C4)C3)ccc21 (stereo not drawn),"inconclusive: 16.4 µM [inhibitor, partial curve]"
8,O=C(c1sc2ccccc2c1Cl)N1CCN(c2ncccn2)CC1,"inconclusive: 29.1 µM [inhibitor, single point]"
9,CCOC(=O)c1sc(N2C(=O)C(O)=C(C(=O)c3ccco3)C2c2ccco2)nc1C (stereo not drawn),inactive
10,CC1CC(C)CN(C(=O)COC(=O)CNC(=O)C23CC4CC(CC(C4)C2)C3)C1 (stereo not drawn),"inconclusive: 11.6 µM [activator, partial curve, poor fit]"
11,S=C(Nc1ccccc1Oc1ccccc1)NC1CCCC1,"inconclusive: 11.6 µM [inhibitor, partial curve, poor fit]"
12,N#CC1=C(Nc2ccc(Br)cc2)CCC1,inactive
13,COc1cc(/C=N/NC(=O)C(=O)NCC2CCCO2)ccc1O (stereo not drawn),inactive
14,COc1cccc(Oc2ccc(C(F)(F)F)cc2NC(=O)CN2C(=O)NC3(CCCC3)C2=O)c1,inactive
15,CN1CCC(N(C)C(=O)c2sc3cc(F)ccc3c2Cl)CC1,inactive
16,Cc1cccc(NC(=O)COC(=O)c2ccccc2-c2nc3ccccc3s2)c1C,"inconclusive: 29.1 µM [inhibitor, partial curve, poor fit]"
17,Cc1ccc(N2C(=O)c3ccccc3C2=O)cc1C,"inconclusive: 18.4 µM [activator, single point]"
18,CC(=O)OC(C(=O)Nc1ccccc1)C(C)S(=O)(=O)c1ccccc1 (stereo not drawn),"inconclusive: 14.6 µM [inhibitor, partial curve]"
19,COc1cc([N+](=O)[O-])cc(/C=N/NC(=O)C(C)Nc2ccccc2C)c1O (stereo not drawn),"inconclusive: 10.3 µM [inhibitor, partial curve, poor fit]"
20,COc1ccc(/C=C/C(=O)c2ccccc2O)cc1,"inconclusive: 16.4 µM [activator, partial curve]"
21,CCN1CCN(S(=O)(=O)c2ccc(F)c(C(=O)Nc3c(F)cc(F)cc3Br)c2)CC1,inactive
22,Cc1c(Cl)ccc2c(C(=O)Nc3cc(C(C)(C)C)on3)cc(-c3ccccn3)nc12,inactive
23,COc1ccc(CCNC(=O)CN2c3cccc4cccc(c34)S2(=O)=O)cc1OC,active: 2.59 µM

# Copied from above for reference:
row,Structure (SMILES),Potency
9,CCOC(=O)c1sc(N2C(=O)C(O)=C(C(=O)c3ccco3)C2c2ccco2)nc1C (stereo not drawn),inactive
10,CC1CC(C)CN(C(=O)COC(=O)CNC(=O)C23CC4CC(CC(C4)C2)C3)C1 (stereo not drawn),"inconclusive: 11.6 µM [activator, partial curve, poor fit]"

# Carrying on:

row,Structure (SMILES),Potency
1,Cc1nc(/N=C(\N)Nc2ccccc2)nc2ccccc12,"inconclusive: 29.1 µM [activator, single point]"
2,CN(CCc1cnn(C)c1)Cc1nc(CC2CC2)no1,inactive
3,O=C(Nc1ccc(Cl)cn1)c1cc2ccccc2o1,"inconclusive: 7.31 µM [activator, partial curve]"
4,COc1ccccc1-n1c(SCC(=O)N(C)C2CCS(=O)(=O)C2)nc2ccccc2c1=O (stereo not drawn),"inconclusive: 18.4 µM [activator, partial curve, poor fit]"
5,CC1=C(C(=O)OC2CCCCC2)C(c2ccco2)C2=C(CC(C)(C)CC2=O)N1 (stereo not drawn),"inconclusive: 15.8 µM [inhibitor, partial curve, poor fit]"
6,COc1ccc(N2CCN(C(=O)c3cc(C)oc3C)CC2)cc1,inactive
7,O=C(N/N=C/c1ccc(-c2cccc(C(F)(F)F)c2)o1)c1ccccc1Br,"inconclusive: 20.6 µM [activator, single point]"
8,O=C1c2ccccc2NC(c2ccc(-c3cccc([N+](=O)[O-])c3)o2)N1O (stereo not drawn),"inconclusive: 23.1 µM [inhibitor, partial curve, poor fit]"
9,CN(C)S(=O)(=O)c1cccc(NC(=O)c2ccccc2OCc2ccc(F)cc2)c1,active: 20.6 µM
10,COC(=O)C1CCN(CC(=O)Nc2ccc3c(c2)OCCO3)CC1,"inconclusive: 29.1 µM [activator, single point]"
11,O=C(CSc1ccc2c(c1)OCCO2)N1CCN(c2ccccc2O)CC1,"inconclusive: 25.9 µM [inhibitor, single point]"
12,Cc1ccc(F)cc1CNC(=O)c1cc(COc2ccc3ncccc3c2)on1,"inconclusive: 10.3 µM [inhibitor, partial curve]"
13,O=C(CSc1ncn(-c2ccccc2)n1)Nc1nc2ccccc2s1,"inconclusive: 20.6 µM [inhibitor, single point]"
14,COc1ccc(CNc2nc3ccccc3s2)cc1OC,"inconclusive: 25.9 µM [activator, single point]"
15,CN1CCN(S(=O)(=O)c2cccc(C(=O)Oc3ccc(C(C)(C)C)cc3)c2)CC1,inactive
16,CC(C)(C)c1nnc(NC(=O)Cc2ccc(Br)cc2)s1,"inconclusive: 29.1 µM [inhibitor, single point]"
17,CCOCCCNC(=O)C(NC(=O)c1ccc(NC(C)=O)cc1)c1ccc(C)cc1 (stereo not drawn),inactive
18,NC(=O)COc1ccc2cc(-c3ccc(F)cc3)c(=O)oc2c1,"inconclusive: 5.8 µM [activator, partial curve]"
19,COc1ccccc1C(CNC(=O)c1cccc(NS(=O)(=O)c2ccc(Br)cc2)c1)N(C)C (stereo not drawn),inactive
20,O=C(CSc1cccc[n+]1[O-])Nc1cccc(Oc2ccccc2)c1,"inconclusive: 29.1 µM [inhibitor, single point]"
21,CC(=O)Nc1cccc(/C(C)=N\NC(=O)c2ccc(Cn3nc([N+](=O)[O-])c(Cl)c3C)o2)c1,"inconclusive: 29.1 µM [inhibitor, single point]"
22,S=c1[nH]nc(-c2ccco2)n1-c1cccc2ccccc12,inactive
23,CN(C)N(C(=O)c1cc(-c2cccs2)nn1-c1ccccc1)C1CCS(=O)(=O)C1 (stereo not drawn),"inconclusive: 20.6 µM [inhibitor, partial curve]"

row,Structure (SMILES),Potency
1,O=C(CSCc1ccc(Cl)cc1)Nc1ccccc1C(=O)N1CCOCC1,inactive
2,Nc1nc(SCc2ccccc2Cl)ns1,"inconclusive: 29.1 µM [activator, single point]"
3,Cn1c(N)c(N2CCCCC2)c(=O)n(CC(=O)Nc2cccc(C#N)c2)c1=O,inactive
4,O=C(Nc1ccc(Oc2cccc(C(F)(F)F)c2)nc1)c1ccco1,active: 10.3 µM
5,O=C(COc1ccc2c3c(c(=O)oc2c1)CCC3)N[C@@H](Cc1ccccc1)C(=O)O,"inconclusive: 25.9 µM [activator, single point]"
6,COc1ccnc(Oc2cccc(C(F)(F)F)c2)c1C(=O)N/C=N/OCc1ccccc1F,"inconclusive: 25.9 µM [inhibitor, partial curve, poor fit]"
7,COc1ccc(/C=C2/CC/C(=C\c3ccc(OC)c(OC)c3OC)C2=O)c(OC)c1OC,"inconclusive: 9.2 µM [inhibitor, partial curve]"
8,COc1cc(NC(=O)c2ccccc2Cl)ccc1NC(=O)c1ccco1,"inconclusive: 9.2 µM [activator, partial curve]"
9,COc1ccc(C(=O)NC(=S)NCc2ccco2)cc1,"inconclusive: 14.6 µM [activator, partial curve, poor fit]"
10,CC[C@]12c3[nH]c4ccc(Cl)cc4c3CCN1C(=O)[C@@H](CC(=O)NC(C)(C)C)C[C@@H]2C(=O)N1CCN(C(=O)c2ccco2)CC1,inactive
11,CC1Sc2ccc(C(=O)Nc3ccc(S(=O)(=O)N(C)C)cc3)cc2NC1=O (stereo not drawn),"inconclusive: 25.9 µM [inhibitor, single point]"
12,CC1CCCCC1NS(=O)(=O)c1ccc(S(=O)(=O)NCc2ccncc2)cc1 (stereo not drawn),"inconclusive: 1.84 µM [inhibitor, partial curve, poor fit]"
13,COCCNC(=O)C1(S(=O)(=O)c2ccccc2)CC=CC1,"inconclusive: 20.6 µM [activator, single point]"
14,Nc1ncc2c(n1)CCN(c1ccc([N+](=O)[O-])cc1)C2,"inconclusive: 5.17 µM [activator, single point]"
15,Cc1ccc2c(Cl)cc(Cl)c(OCC(=O)Nc3ccc(C)c(S(=O)(=O)N(C)C)c3)c2n1,inactive
16,O=C(Cn1ncc2c3ccccc3n(Cc3ccccc3)c2c1=O)NCc1ccco1,inactive
17,COc1ccc(NC(=O)CSc2nc3ccsc3c(=O)n2CCC(=O)O)c(OC)c1,inactive
18,Cc1cc(N2CCOCC2)nc2ccc(NC(=O)CCC(=O)N3CCCC(C)C3)cc12 (stereo not drawn),"inconclusive: 8.2 µM [activator, partial curve]"
19,Cc1ccc(N2CC(C(=O)Nc3ncc([N+](=O)[O-])s3)CC2=O)cc1 (stereo not drawn),"inconclusive: 29.1 µM [inhibitor, single point]"
20,COc1ccc(C(=O)CCNc2ccc3c(c2)OCCO3)cc1,"inconclusive: 29.1 µM [activator, single point]"
21,C/C(=N/NC(=O)c1ccc2c(c1)OCO2)c1cccc([N+](=O)[O-])c1,"inconclusive: 4.11 µM [activator, full curve]"
22,CCOC(=O)CN1C(=O)C(=O)N(Cc2ccccc2F)C1=O,"inconclusive: 5.17 µM [activator, partial curve, poor fit]"

# Some of the entries so far, bar-delimited:
row | Structure (SMILES) | Potency
17 | COc1ccc(NC(=O)CSc2nc3ccsc3c(=O)n2CCC(=O)O)c(OC)c1 | inactive
18 | Cc1cc(N2CCOCC2)nc2ccc(NC(=O)CCC(=O)N3CCCC(C)C3)cc12 (stereo not drawn) | inconclusive: 8.2 µM [activator, partial curve]
